Results reported in PMC7862700.
The entries are a selection whose mix differs from that of the whole data set. At the low end of the ranking the order means little.

Legend:
Assay in all cases: DAPPL (digital affinity profiling via proximity ligation, sequencing)
Settings in all cases: 10 mM Tris-HCl pH 7.5, 50 mM NaCl, 1 mM DTT, 4% glycerol, room temperature, 30 min; GST-TFs on glutathione beads, 16-mer random dsDNA library, 0.1% …; high values mean tight binding; double strand, one strand shown; scale: fold enrichment (6-mer frequency, TF over GST control)
ELK1 = target: T1, ELK1 (UniProt P19419)
T1 sequence: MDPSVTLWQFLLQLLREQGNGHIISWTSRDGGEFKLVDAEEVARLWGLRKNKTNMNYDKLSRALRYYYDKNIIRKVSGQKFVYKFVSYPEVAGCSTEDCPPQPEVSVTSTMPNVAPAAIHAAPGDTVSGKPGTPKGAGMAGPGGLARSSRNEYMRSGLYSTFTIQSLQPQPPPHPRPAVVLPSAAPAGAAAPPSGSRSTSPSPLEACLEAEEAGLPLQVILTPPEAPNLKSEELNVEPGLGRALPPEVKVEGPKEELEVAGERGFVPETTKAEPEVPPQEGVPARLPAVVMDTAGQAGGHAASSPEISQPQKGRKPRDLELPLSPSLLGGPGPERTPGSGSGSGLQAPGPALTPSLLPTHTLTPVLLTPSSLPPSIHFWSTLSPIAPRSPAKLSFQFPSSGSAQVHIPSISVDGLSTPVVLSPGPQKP

ELK3 = target: T2, ELK3 (UniProt P41970)
T2 sequence: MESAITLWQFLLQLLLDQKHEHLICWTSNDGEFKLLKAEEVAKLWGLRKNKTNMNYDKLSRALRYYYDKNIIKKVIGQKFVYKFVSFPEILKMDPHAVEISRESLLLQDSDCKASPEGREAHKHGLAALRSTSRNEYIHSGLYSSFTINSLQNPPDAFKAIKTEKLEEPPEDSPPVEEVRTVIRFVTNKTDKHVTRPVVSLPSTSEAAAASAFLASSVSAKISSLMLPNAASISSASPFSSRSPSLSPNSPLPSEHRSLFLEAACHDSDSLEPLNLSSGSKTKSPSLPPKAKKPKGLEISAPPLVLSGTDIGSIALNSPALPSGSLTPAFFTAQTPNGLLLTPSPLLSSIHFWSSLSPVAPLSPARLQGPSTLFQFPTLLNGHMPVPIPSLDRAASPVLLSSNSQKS

SPIC = target: T3, SPIC (UniProt Q8N5J4)
T3 sequence: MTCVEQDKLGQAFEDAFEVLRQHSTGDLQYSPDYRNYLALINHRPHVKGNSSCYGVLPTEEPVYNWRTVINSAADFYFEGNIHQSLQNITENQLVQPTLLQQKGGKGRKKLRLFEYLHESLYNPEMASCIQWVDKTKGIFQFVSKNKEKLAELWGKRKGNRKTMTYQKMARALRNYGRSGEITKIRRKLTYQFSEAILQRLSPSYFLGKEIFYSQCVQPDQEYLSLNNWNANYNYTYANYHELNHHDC

ETS2 = target: T4, ETS2 (UniProt P15036)
T4 sequence: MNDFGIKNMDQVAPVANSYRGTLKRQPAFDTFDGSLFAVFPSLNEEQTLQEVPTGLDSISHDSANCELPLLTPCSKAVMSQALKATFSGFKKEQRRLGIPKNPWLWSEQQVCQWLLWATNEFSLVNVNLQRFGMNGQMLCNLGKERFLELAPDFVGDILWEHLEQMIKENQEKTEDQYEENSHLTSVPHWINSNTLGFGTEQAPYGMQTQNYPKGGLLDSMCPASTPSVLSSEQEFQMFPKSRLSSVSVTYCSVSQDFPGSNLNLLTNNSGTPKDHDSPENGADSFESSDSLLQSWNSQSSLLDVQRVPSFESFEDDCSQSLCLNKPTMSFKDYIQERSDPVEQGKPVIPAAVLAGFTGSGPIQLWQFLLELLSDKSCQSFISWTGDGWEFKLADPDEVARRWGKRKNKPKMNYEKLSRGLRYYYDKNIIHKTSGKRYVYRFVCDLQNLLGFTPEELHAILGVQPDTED

ETV3 = target: T5, ETV3 (UniProt P41162-2)
T5 sequence: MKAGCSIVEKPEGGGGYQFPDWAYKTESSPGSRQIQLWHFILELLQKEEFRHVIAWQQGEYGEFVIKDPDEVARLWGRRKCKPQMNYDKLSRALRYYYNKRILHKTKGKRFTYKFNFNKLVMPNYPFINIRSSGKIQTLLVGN

Sequence | binding signal (ELK1) | binding signal (ELK3) | binding signal (SPIC) | binding signal (ETS2) | binding signal (ETV3)
AGTCGA | 0.394 | 0.385 | 0.448 | 0.406 | 0.417
GAGTCA | 0.269 | 0.31 | 0.279 | 0.263 | 0.289
GGGAGT | 0.249 | 0.242 | 0.208 | 0.239 | 0.24
GAGGCT | 0.639 | 0.632 | 0.573 | 0.576 | 0.615
GGGACT | 0.689 | 0.638 | 0.611 | 0.703 | 0.715
AGTCAT | 0.566 | 0.593 | 0.567 | 0.574 | 0.566
AGGCGA | 0.593 | 0.515 | 0.607 | 0.56 | 0.498
GTGGAG | 0.386 | 0.391 | 0.456 | 0.405 | 0.424
ATCGGC | 0.654 | 0.682 | 0.725 | 0.61 | 0.644
GCGCGA | 0.695 | 0.806 | 0.796 | 0.695 | 0.703
GTAAGT | 0.728 | 0.774 | 0.754 | 0.706 | 0.755
TGCCGT | 0.831 | 0.85 | 0.847 | 0.813 | 0.835
GACCAC | 0.867 | 0.941 | 0.808 | 0.847 | 0.829
GAGATC | 0.456 | 0.425 | 0.433 | 0.442 | 0.446
CGGACT | 0.927 | 0.899 | 0.785 | 0.781 | 0.856
CGAGGG | 0.631 | 0.674 | 0.633 | 0.641 | 0.609
TTGTGA | 0.82 | 0.683 | 0.791 | 0.839 | 0.731
GTTGAG | 0.625 | 0.649 | 0.729 | 0.66 | 0.679
GTCGGG | 0.246 | 0.246 | 0.241 | 0.22 | 0.229
GGCGAC | 0.894 | 0.813 | 0.835 | 0.859 | 0.821
GGTCAT | 0.885 | 0.847 | 0.709 | 0.873 | 0.85
CGTGAT | 0.507 | 0.467 | 0.4 | 0.495 | 0.451
GAGCCG | 0.457 | 0.405 | 0.398 | 0.394 | 0.437
CGGGGC | 0.592 | 0.591 | 0.555 | 0.569 | 0.555
GATCGG | 0.474 | 0.513 | 0.525 | 0.469 | 0.5

Sequence | binding signal (ELK1) | binding signal (ELK3) | binding signal (SPIC) | binding signal (ETS2) | binding signal (ETV3)
CGGGCA | 0.718 | 0.707 | 0.803 | 0.684 | 0.751
GGGTCC | 0.789 | 0.717 | 0.804 | 0.852 | 0.783
GTGAAA | 0.711 | 0.711 | 0.69 | 0.752 | 0.715
CTGTCG | 0.579 | 0.527 | 0.618 | 0.52 | 0.483
GAGGCC | 0.425 | 0.425 | 0.419 | 0.443 | 0.455
AGGACA | 0.868 | 0.838 | 0.798 | 0.853 | 0.87
CGGGCC | 0.73 | 0.735 | 0.652 | 0.742 | 0.813
GGAATC | 0.715 | 0.732 | 0.726 | 0.746 | 0.847
GTCAGC | 0.784 | 0.767 | 0.726 | 0.726 | 0.659
AGTAGT | 0.877 | 0.905 | 0.957 | 0.958 | 0.95
CAGCTG | 0.862 | 0.827 | 0.963 | 0.905 | 0.87
GGGACA | 0.719 | 0.658 | 0.732 | 0.654 | 0.675
CAGGAG | 0.248 | 0.267 | 0.286 | 0.269 | 0.237
CCAAGG | 0.988 | 0.961 | 0.766 | 0.895 | 0.907
GTAGGC | 0.738 | 0.698 | 0.86 | 0.695 | 0.685
GAGGCA | 0.407 | 0.421 | 0.468 | 0.461 | 0.427
GCCGGT | 0.709 | 0.553 | 0.601 | 0.641 | 0.724
TGCGAG | 0.967 | 0.921 | 0.944 | 0.96 | 0.893
CAGTGA | 0.337 | 0.338 | 0.336 | 0.321 | 0.352
ATCAGT | 0.871 | 0.949 | 0.852 | 0.891 | 0.85
TGGGGC | 0.803 | 0.831 | 0.803 | 0.803 | 0.788
AGAGAC | 0.531 | 0.561 | 0.575 | 0.525 | 0.521
CGGGCG | 0.434 | 0.412 | 0.362 | 0.427 | 0.439
GGCCCG | 0.794 | 0.749 | 0.75 | 0.795 | 0.751
GGAGCT | 0.626 | 0.564 | 0.525 | 0.547 | 0.598

Some of the entries so far, with tabs:
Sequence	binding signal (ELK1)	binding signal (ELK3)	binding signal (SPIC)	binding signal (ETS2)	binding signal (ETV3)
GAGGCC	0.425	0.425	0.419	0.443	0.455
AGGACA	0.868	0.838	0.798	0.853	0.87
